PubChem BioAssay AID1259308 – NCATS, 2017

Aim: 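Knock-downs that increase output of a recombinant reporter protein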 (primary screen)
Cells: human HEK293 embryonic kidney cells stably expressing firefly luciferase (HEK-CMV-Luc2-Hygro)
Knock-down reagent: single siRNA against human genes, 0.8 pmol siRNA per well
Duration: 72 h
Measurement: 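Reporter luminescence and viable-cell signal on separate replicate plates, given as percent of non-targeting control and median/MAD z-scores, plus per-cell luciferase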
Direction: total luciferase, z-score and total luciferase, % of control: higher = more reporter protein produced; luciferase per cell, z-score: higher = more reporter output per viable cell; viable cells, % of control: higher = more viable cells
Rule for the call: 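An siRNA counts as active if its total luciferase robust z-score exceeds 3; genes with two or more such siRNAs out of three were retested with fresh siRNAs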
Meaning of the calls: active = raised luciferase; inactive = no rise
In all, the deposit lists about 59,000 reagents; below is a random part of them. Over the whole deposit, about 1,510 (2.6%) are marked active. 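Calls use total luciferase alone and ignore viability, so some active siRNAs may act by altering cell number.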 Entries without a mark were called inactive. Reagents against one gene are numbered here.

gene symbol | reagent no. | total luciferase, z-score | total luciferase, % of control | luciferase per cell, z-score | viable cells, % of control
ACYP2 | 1 | 0.449 | 90.8 | 0.968 | 78.6
ACYP2 | 2 | -0.415 | 73.6 | -0.873 | 104
ACYP2 | 3 | 1.16 | 105 | 0.465 | 104
TMEFF2 | 1 | 0.465 | 91.1 | 0.199 | 96.6
TMEFF2 | 2 | -0.465 | 72.6 | -1.04 | 107
TMEFF2 | 3 | -1.13 | 59.4 | -0.703 | 79.9
GOLT1A | 1 | 1.19 | 106 | 0.205 | 112
GOLT1A | 2 | 1.78 | 117 | 1.16 | 96.7
GOLT1A | 3 | -1.36 | 54.8 | -1.22 | 84.5
RPS8P4 | 1 | -2.55 | 31.1 | -1.83 | 56.3
RPS8P4 | 2 | 1.78 | 117 | 1.11 | 97.8
RPS8P4 | 3 | 0.184 | 85.6 | -0.0424 | 96.7
VAPB | 1 | -0.842 | 65.1 | -0.151 | 75.7
VAPB | 2 | -0.301 | 75.9 | 2.27 | 46.7
VAPB | 3 | 0.841 | 98.6 | 0.684 | 92
GASK1A | 1 | -0.221 | 77.5 | 0.884 | 68.6
GASK1A | 2 | 0.247 | 86.8 | 0.207 | 91.8
GASK1A | 3 | -1.47 | 52.7 | -1.97 | 99
OR2T12 | 1 | -0.398 | 74 | 0.183 | 78.8
OR2T12 | 2 | 0.415 | 90.1 | 2.01 | 59.3
OR2T12 | 3 | -1.99 | 42.3 | -2.21 | 84.6
STMN4 | 1 | -1.94 | 43.2 | -1.8 | 77.6
STMN4 | 2 | -1.29 | 56.3 | -0.999 | 81.8
STMN4 | 3 | -0.545 | 71.1 | -0.608 | 93.2
RTL4 | 1 | -1.33 | 55.5 | -1.31 | 87.5
RTL4 | 2 | 2.34 | 129 | 1.87 | 87.8
RTL4 | 3 | -0.998 | 62 | -1.09 | 92.3
BMS1P11 | 1 | 1.68 | 115 | 2.29 | 70.6
BMS1P11 | 2 | -1.52 | 51.6 | -0.436 | 64.7
BMS1P11 | 3 | 1.31 | 108 | 1.32 | 85.2
PLEKHM3 | 1 | -1.04 | 61.2 | -1.2 | 93.8
PLEKHM3 | 2 | 0.702 | 95.8 | 0.623 | 90.9
PLEKHM3 | 3 | 0.0695 | 83.3 | 0.274 | 86.6
METTL15 | 1 | -1.21 | 57.9 | -0.892 | 81.8
METTL15 | 2 | 0.785 | 97.5 | 1.7 | 69.6
METTL15 | 3 | -0.228 | 77.3 | -0.246 | 92.2
SPO11 | 1 | -1.87 | 44.8 | -2.01 | 84.8
SPO11 | 2 | 0.0871 | 83.6 | -0.605 | 110
SPO11 | 3 | 0.0616 | 83.1 | -0.423 | 104
PATE4 | 1 | -0.144 | 79 | -0.0597 | 89.7
PATE4 | 2 | -0.815 | 65.7 | 0.543 | 63.6
PATE4 | 3 | 0.495 | 91.7 | 0.322 | 94.2
PURB | 1 | 0.971 | 101 | 0.218 | 107
PURB | 2 | 1.25 | 107 | 1 | 91.5
PURB | 3 | 1.26 | 107 | 1.49 | 80.7
TEAD2 | 1 | 0.184 | 85.5 | 0.229 | 90
TEAD2 | 2 | -0.484 | 72.3 | -0.664 | 96.2
TEAD2 | 3 | -0.206 | 77.8 | -0.243 | 92.7
TPI1 | 1 | 0.097 | 83.8 | -0.153 | 97.5
TPI1 | 2 | -1.25 | 57.1 | -0.131 | 66
TPI1 | 3 | 0.638 | 94.6 | 0.579 | 90.8
XAGE1B | 1 | -1.71 | 47.9 | 1.81 | 33.2
XAGE1B | 2 | 0.0114 | 82.1 | -0.574 | 107
XAGE1B | 3 | 0.152 | 84.9 | -0.0819 | 97
NANS | 1 | -2.05 | 41.2 | -2.68 | 93.3
NANS | 2 | 0.316 | 88.2 | 0.33 | 90.3
NANS | 3 | 0.781 | 97.4 | 1.35 | 76.4

Records listed so far whose gene name starts with P or p:
gene symbol | reagent no. | total luciferase, z-score | total luciferase, % of control | luciferase per cell, z-score | viable cells, % of control
PLEKHM3 | 1 | -1.04 | 61.2 | -1.2 | 93.8
PLEKHM3 | 2 | 0.702 | 95.8 | 0.623 | 90.9
PLEKHM3 | 3 | 0.0695 | 83.3 | 0.274 | 86.6
PATE4 | 1 | -0.144 | 79 | -0.0597 | 89.7
PATE4 | 2 | -0.815 | 65.7 | 0.543 | 63.6
PATE4 | 3 | 0.495 | 91.7 | 0.322 | 94.2
PURB | 1 | 0.971 | 101 | 0.218 | 107
PURB | 2 | 1.25 | 107 | 1 | 91.5
PURB | 3 | 1.26 | 107 | 1.49 | 80.7
